± gives the standard deviation of the averaged measurements. The entries are a selection whose mix differs from that of the whole data set.

Chains of the proteins cited; added tags and fusions are not shown. Lines headed by an entry give the natural chain unless they say otherwise; changes in a name come on top.
UniProt Q6P2E9: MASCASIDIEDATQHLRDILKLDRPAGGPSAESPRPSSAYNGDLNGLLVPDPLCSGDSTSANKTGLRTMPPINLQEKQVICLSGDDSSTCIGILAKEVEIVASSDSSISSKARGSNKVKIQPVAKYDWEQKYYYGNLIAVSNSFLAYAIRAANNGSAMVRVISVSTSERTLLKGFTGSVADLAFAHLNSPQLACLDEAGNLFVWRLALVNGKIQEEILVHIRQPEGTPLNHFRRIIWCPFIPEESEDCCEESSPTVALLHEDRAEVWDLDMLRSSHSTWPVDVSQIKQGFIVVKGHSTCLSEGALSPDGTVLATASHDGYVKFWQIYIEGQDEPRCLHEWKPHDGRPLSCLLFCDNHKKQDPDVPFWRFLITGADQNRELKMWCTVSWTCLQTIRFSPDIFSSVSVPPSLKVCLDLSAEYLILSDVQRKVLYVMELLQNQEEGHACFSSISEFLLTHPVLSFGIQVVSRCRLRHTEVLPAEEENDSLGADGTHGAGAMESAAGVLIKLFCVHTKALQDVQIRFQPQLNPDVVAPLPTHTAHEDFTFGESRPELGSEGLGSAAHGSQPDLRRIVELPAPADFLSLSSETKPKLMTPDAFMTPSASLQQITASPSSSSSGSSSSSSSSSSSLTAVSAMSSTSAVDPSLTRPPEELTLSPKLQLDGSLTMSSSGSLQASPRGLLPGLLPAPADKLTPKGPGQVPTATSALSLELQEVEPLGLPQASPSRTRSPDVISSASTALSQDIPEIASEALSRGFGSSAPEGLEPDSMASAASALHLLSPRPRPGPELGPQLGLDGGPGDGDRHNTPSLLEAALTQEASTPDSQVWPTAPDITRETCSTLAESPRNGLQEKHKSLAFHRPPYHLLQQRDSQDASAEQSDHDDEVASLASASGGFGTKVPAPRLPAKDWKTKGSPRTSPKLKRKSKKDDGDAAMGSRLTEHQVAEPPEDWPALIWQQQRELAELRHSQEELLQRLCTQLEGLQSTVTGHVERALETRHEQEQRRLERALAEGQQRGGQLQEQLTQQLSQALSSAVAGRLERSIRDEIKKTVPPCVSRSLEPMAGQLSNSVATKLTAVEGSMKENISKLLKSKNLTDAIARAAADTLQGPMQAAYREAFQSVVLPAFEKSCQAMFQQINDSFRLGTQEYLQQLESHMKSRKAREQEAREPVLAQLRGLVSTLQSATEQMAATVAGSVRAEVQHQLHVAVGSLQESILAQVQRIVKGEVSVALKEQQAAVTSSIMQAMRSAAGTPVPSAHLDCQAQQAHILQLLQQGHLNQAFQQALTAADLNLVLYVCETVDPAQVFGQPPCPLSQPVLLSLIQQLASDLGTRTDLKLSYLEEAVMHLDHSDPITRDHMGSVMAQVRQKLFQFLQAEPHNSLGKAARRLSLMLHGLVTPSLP
UniProt Q6P4F7: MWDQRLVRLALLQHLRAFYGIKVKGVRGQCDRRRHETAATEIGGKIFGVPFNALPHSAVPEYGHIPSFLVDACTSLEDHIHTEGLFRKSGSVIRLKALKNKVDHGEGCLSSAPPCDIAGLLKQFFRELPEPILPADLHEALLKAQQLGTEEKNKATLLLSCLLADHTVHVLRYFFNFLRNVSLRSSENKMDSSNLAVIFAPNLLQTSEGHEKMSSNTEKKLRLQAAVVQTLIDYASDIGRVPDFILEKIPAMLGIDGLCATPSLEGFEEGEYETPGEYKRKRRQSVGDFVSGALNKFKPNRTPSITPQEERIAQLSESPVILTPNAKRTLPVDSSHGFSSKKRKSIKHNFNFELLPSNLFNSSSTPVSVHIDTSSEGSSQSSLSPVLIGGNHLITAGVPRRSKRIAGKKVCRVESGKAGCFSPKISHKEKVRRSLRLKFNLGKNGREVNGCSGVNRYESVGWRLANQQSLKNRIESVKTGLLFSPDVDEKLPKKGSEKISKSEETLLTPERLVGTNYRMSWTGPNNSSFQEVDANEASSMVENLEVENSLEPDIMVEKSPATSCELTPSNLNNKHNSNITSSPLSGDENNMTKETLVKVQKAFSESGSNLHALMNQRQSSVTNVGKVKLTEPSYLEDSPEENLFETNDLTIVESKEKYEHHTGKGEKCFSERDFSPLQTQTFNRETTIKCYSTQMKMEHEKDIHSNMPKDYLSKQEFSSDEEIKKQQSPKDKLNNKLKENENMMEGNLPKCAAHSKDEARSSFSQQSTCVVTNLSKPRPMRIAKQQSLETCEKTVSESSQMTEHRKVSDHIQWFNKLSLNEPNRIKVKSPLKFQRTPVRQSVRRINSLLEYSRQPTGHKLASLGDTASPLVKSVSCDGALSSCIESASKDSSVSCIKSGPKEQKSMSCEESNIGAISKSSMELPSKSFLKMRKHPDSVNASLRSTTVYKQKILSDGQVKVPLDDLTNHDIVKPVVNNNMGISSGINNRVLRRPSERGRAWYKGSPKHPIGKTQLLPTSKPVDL
UniProt Q6NSJ2: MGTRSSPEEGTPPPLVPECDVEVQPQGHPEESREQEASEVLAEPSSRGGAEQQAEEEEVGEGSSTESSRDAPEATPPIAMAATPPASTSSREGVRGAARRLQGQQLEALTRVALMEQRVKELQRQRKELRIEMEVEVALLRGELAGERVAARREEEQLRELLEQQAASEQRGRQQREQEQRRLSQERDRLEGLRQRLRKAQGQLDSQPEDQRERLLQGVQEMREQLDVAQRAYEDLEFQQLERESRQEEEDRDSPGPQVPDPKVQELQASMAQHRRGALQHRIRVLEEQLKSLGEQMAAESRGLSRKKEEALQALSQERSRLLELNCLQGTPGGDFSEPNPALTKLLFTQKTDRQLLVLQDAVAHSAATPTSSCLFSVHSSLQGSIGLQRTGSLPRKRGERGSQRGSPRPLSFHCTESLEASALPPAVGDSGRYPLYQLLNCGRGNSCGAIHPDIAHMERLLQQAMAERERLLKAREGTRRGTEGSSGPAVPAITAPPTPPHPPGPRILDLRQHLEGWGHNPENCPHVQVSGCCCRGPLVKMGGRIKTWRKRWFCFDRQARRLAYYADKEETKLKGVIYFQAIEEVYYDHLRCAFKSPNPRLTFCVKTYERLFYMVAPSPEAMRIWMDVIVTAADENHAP
UniProt Q7L8L6: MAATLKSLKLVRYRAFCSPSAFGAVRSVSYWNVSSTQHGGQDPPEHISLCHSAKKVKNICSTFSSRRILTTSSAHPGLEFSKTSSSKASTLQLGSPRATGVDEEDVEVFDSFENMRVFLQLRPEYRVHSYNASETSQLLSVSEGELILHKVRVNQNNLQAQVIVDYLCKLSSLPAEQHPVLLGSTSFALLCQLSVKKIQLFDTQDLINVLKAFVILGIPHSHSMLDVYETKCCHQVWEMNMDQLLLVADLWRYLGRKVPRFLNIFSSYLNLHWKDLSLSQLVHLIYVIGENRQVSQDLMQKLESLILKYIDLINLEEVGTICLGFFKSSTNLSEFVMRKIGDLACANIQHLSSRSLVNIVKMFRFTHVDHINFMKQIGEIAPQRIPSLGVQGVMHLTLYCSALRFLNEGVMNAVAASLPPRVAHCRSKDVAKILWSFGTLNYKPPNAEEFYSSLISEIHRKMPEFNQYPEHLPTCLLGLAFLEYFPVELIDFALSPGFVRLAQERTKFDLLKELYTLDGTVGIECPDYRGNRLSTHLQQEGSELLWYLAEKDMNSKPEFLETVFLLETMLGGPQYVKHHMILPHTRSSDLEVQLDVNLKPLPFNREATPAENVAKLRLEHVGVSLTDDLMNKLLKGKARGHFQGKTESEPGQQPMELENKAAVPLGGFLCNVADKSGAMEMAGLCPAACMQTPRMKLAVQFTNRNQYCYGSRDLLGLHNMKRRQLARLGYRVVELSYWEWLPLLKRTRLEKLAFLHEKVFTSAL
UniProt Q63HQ0: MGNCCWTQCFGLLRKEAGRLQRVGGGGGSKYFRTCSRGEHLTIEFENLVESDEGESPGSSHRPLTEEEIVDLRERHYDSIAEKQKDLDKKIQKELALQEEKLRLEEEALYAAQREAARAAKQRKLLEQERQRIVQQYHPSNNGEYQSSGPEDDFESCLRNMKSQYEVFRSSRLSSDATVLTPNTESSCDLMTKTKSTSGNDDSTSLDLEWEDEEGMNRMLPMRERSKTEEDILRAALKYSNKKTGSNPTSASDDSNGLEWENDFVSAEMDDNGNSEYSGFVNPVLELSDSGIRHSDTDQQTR
UniProt Q6P1N0: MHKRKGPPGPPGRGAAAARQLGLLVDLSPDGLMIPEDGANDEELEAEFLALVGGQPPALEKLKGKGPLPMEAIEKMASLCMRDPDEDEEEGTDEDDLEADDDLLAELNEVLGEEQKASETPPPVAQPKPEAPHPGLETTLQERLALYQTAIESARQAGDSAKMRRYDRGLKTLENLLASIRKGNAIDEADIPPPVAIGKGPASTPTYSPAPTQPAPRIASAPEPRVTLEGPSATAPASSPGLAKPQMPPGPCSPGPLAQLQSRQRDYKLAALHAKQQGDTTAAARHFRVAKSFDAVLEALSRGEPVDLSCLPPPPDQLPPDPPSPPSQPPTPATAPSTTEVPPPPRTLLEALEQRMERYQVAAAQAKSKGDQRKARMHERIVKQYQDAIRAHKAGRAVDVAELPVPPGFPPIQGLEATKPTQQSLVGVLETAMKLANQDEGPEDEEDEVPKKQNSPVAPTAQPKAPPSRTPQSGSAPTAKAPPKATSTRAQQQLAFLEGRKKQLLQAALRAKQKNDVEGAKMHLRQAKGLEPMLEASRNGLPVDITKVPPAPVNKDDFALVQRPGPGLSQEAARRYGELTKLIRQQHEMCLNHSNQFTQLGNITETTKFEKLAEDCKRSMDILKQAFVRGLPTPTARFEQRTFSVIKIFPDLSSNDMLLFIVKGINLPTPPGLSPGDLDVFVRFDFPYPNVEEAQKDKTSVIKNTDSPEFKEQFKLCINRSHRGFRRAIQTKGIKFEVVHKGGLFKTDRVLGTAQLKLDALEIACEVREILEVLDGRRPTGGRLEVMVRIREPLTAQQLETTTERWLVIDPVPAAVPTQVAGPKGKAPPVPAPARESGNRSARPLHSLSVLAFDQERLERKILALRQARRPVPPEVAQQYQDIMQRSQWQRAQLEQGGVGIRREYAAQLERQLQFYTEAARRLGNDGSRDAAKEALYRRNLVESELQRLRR
UniProt Q6NUQ4: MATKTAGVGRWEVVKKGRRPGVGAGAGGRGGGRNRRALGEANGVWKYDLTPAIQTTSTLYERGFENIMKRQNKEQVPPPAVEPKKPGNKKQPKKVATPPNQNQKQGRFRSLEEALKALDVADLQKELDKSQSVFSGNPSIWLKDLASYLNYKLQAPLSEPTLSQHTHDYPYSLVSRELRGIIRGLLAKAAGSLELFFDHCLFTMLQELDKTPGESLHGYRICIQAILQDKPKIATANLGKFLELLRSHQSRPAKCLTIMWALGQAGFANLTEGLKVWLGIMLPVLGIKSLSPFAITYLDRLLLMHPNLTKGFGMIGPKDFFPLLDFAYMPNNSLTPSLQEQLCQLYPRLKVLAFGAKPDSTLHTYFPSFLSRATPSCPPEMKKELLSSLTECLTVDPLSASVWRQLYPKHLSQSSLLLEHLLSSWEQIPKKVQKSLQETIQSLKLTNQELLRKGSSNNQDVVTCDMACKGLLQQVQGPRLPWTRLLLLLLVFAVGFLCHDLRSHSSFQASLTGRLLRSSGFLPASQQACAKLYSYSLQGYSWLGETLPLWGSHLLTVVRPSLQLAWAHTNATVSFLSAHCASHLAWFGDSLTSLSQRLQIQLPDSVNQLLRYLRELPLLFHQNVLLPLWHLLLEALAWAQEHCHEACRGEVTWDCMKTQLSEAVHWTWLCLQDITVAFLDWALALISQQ
UniProt Q6N063: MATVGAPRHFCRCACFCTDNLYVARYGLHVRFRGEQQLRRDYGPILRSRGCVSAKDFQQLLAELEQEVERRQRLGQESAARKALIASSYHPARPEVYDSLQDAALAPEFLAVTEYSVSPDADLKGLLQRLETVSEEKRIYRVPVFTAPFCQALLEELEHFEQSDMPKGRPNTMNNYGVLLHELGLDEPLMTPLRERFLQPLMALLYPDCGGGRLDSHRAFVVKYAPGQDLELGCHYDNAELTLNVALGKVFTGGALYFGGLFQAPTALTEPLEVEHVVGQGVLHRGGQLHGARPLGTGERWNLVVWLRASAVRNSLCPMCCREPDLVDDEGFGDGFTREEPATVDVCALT

Compound in this assay: Nc1ncnc2c1ncn2[C@@H]1O[C@H](COP(=O)(O)OP(=O)(O)NP(=O)(O)O)[C@@H](O)[C@H]1O [adenylyl imidodiphosphate]
The assay is described as follows: NP40-soluble protein abundance relative to vehicle (solubility fold change) (ratio); higher = more soluble protein in presence of AMP-PNP. As to conditions: concentration: 8mM. The gist of the method: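 Values are fold changes against the detergent-processed vehicle, based on vsn-normalised intensities. Jurkat crude lysate was treated at eight concentrations from 0.1 to 10 mM (10 min at room temperature, then 3 min at 37 °C), solubilised with 0.8% NP40 and benzonase, ultracentrifuged and analysed by TMT-labelled LC-MS/MS over three independent experiments.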
With UniProt Q7Z2W9 and related entries, the NP40-soluble protein abundance turned out to be 0.964 ± 0.045.

On to EDC4 (UniProt Q6P2E9), for which the NP40-soluble protein abundance was determined as 0.942 ± 0.045.

In the case of ARHGAP11A (UniProt Q6P4F7), the NP40-soluble protein abundance stood at 1.04 ± 0.019.

With UniProt Q6PCB7 and related entries, the NP40-soluble protein abundance came out at 1.01 ± 0.04.

As to PHLDB3 (UniProt Q6NSJ2), the NP40-soluble protein abundance was 0.988 ± 0.014.

With TRIM65 (UniProt Q6PJ69), the NP40-soluble protein abundance was found to be 0.968 ± 0.019.

For the target UniProt Q5VWN6, the NP40-soluble protein abundance is 0.976 ± 0.026.

Regarding FASTKD5 (UniProt Q7L8L6), the NP40-soluble protein abundance was 0.946 ± 0.018.

For UniProt Q63HQ0, the NP40-soluble protein abundance was found to be 0.926 ± 0.018.

Take UniProt Q6P1N0 and related entries: the NP40-soluble protein abundance is 1.01 ± 0.015.

UniProt Q6NUQ4 and related entries: the NP40-soluble protein abundance stood at 1.1 ± 0.029.

In the case of UniProt Q6R327 and related entries, the NP40-soluble protein abundance is 0.99 ± 0.055.

Regarding SND1 (UniProt Q7KZF4), the NP40-soluble protein abundance came to 1.27 ± 0.064.

On to OGFOD2 (UniProt Q6N063), for which the NP40-soluble protein abundance amounted to 0.923 ± 0.028.

The values above are taken from the supplement of paper PMC6411743.
